# Results reported in PubChem BioAssay AID743255 (National Center for Advancing Translational Sciences (NCATS), 2014).
# The chains behind the UniProt entries cited, without tags or fusion partners. Where a name states a change or a piece, a line headed by the entry shows the natural chain unless it says otherwise.
# UniProt O94782: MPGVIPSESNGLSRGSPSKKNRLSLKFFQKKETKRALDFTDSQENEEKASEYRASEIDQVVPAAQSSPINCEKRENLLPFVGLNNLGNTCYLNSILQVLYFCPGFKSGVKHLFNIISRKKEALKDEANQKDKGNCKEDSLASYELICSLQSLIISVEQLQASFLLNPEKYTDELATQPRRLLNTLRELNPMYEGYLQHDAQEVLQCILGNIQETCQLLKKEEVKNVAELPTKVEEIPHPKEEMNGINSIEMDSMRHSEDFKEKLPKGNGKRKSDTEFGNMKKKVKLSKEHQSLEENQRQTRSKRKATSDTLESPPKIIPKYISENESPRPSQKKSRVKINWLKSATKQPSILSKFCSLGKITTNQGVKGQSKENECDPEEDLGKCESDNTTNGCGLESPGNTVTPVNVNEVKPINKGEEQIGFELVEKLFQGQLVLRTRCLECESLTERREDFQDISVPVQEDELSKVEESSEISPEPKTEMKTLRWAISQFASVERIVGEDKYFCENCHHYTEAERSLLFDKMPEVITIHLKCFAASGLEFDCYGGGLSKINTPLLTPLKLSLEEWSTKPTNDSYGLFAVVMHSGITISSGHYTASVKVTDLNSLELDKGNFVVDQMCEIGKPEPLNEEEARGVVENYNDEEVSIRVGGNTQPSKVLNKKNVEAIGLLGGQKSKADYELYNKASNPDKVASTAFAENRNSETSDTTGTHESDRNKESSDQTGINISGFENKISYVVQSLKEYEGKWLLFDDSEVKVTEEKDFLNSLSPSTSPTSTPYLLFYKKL
# Screen size: about 390,000 compounds; about 910 (0.23%) were called active. Inconclusive results, whose numbers are uncertain, are shown with a selection of clear calls. Calls follow the shape of the dose curve; as a rule, active = well fitted inhibition curve with a large enough effect; inconclusive = small, poorly fitted or top-dose-only effect; inactive = no such curve, though single readings can be large or run the other way. Potencies of inconclusive entries are doubtful fits and often do not repeat.
# Molecular target: Ubiquitin carboxyl-terminal hydrolase 1 (Homo sapiens) (UniProt O94782)
# Experiment: Inhibitors of USP1/UAF1: Primary Screen; also: nearly all actives have a fitted effect of over 60% in size
# Details: recombinant USP1/UAF1, Ub-Rhodamine cleavage fluorescence; series mostly up to 57.1 µM
# Summary of the method: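 Step one: compound is pinned into 1nM USP1/UAF1 in HEPES pH 7.8 buffer with TCEP. Step two: 15 min room-temperature incubation. Step three: Ub-Rho (150nM final) starts cleavage, tracked by fluorescence over six one-minute reads.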
# Potency is read from the fitted curve at half-maximal effect.
row,Compound,Potency
1,Cc1cccc(OCCCN2CCCCCC2)c1,"inconclusive: 31.6 µM [inhibitor, single point]"
2,CC1(C)CC(=S)Nc2ccccc2S1,"inconclusive: 6.31 µM [inhibitor, full curve, poor fit]"
3,CCc1ccccc1NC(=O)Nc1cc(C(=O)NCc2cccc(F)c2)ccc1N1CCCC1,inactive
4,O=C(O)C(c1ccccc1)N1C(=O)/C(=C\c2ccc(-c3cccc(Cl)c3)o2)SC1=S (stereo unspecified),active: 35.5 µM
5,COc1ccc2c3c(cccc13)OC2=O,inactive
6,Cc1nc2ccccc2nc1-c1ccc([N+](=O)[O-])cc1,"inconclusive: 39.8 µM [inhibitor, single point]"
7,CN(CC(=O)Nc1c(Cl)cccc1Cl)C(=O)c1ccccc1SCC(=O)N1CCCC1,inactive
8,O=C(c1ccccc1)c1ccc(O)cc1O,active: 28.2 µM
9,NS(=O)(=O)c1ccc(N=Nc2c[nH]c(=O)c(O)c2)cc1,active: 28.2 µM
10,CCCCN(Cc1ccccc1)c1ncnc2nc[nH]c12,inactive
11,CC1(OC(=O)CCc2ccccc2)C(=O)C=C2C=C(c3ccc(C#N)cc3)N(Cc3ccco3)C=C2C1=O (stereo unspecified),"inconclusive: 50.1 µM [inhibitor, partial curve, poor fit]"
12,Cc1nnc(NC(=O)c2c(-c3ccccc3Cl)noc2C)s1,"inconclusive: 35.5 µM [inhibitor, partial curve, poor fit]"
13,O=C(c1ccc2c(c1)N(Cc1ccccc1F)C(=O)c1ccccc1S2(=O)=O)N1CCc2ccccc21,"inconclusive: 0.708 µM [inhibitor, full curve, poor fit]"
14,Cc1ccccc1Nc1cc(C)c2c(O)cccc2n1,inactive
15,CCC(Sc1nc2ccncc2[nH]1)C(=O)Nc1cc(Cl)ccc1C (stereo unspecified),"inconclusive: 4.47 µM [inhibitor, single point]"
16,CCOc1ccccc1NC(=O)Cn1nnc(-c2ccc(OCC)c(OCC)c2)n1,"inconclusive: 28.2 µM [inhibitor, single point]"
17,COc1cc(OC)c2c3c(c(C4CCCCC4)nc2c1)CCCC3,"inconclusive: 5.01 µM [inhibitor, full curve, poor fit]"
18,C[C@H](CO)N1C[C@H](C)[C@H](CN(C)CC2CC2)Oc2ccc(NC(=O)CCN3CCOCC3)cc2C1=O,"inconclusive: 0.316 µM [inhibitor, full curve, poor fit]"
19,O=C(CNC(=O)c1ccc(Cl)cc1)c1ccccc1,"inconclusive: 0.562 µM [inhibitor, full curve, poor fit]"
20,COc1cc(N)c2ncccc2c1SC,"inconclusive: 50.1 µM [inhibitor, partial curve, poor fit]"
21,Cn1nc(-c2ccccc2)c2nc3ccccc3nc21,"inconclusive: 4.47 µM [inhibitor, partial curve, poor fit]"

row,Compound,Potency
1,COc1cc(C(=O)Nc2ccc3c(c2)OCCO3)ccc1OC(F)F,inactive
2,Cc1ccc2oc(C(=O)Nc3ccc(S(=O)(=O)N(C)c4ccccc4)cc3)cc(=O)c2c1,"inconclusive: 1.12 µM [inhibitor, full curve, poor fit]"
3,CCc1ccc(NCc2cc3cc4c(cc3n(CC(=O)Nc3ccccc3OC)c2=O)OCCO4)cc1,"inconclusive: 17.8 µM [inhibitor, partial curve]"
4,Cc1cc(NC(=O)Nc2nnc(N(C)C3CCCCC3)s2)ccc1Br,"inconclusive: 50.1 µM [inhibitor, partial curve, poor fit]"
5,COc1ccccc1NC(=O)CSc1nnc(NC(=O)NC2CCCCC2)s1,inactive
6,Cc1ccc2[nH]c(=O)c(CN3CCCCC3)c(-c3ccccc3)c2c1,"inconclusive: 50.1 µM [inhibitor, partial curve, poor fit]"
7,Cc1cc(Br)ccc1NC(=O)C1CCCN(S(=O)(=O)c2cccc3nonc23)C1 (stereo unspecified),"inconclusive: 8.91 µM [inhibitor, full curve, poor fit]"
8,CCCCNC(=O)C(CC)(ONc1ccccc1C(F)(F)F)c1ccccc1 (stereo unspecified),"inconclusive: 2.51 µM [inhibitor, partial curve]"
9,N#CC1=C(N)SC(N)=C(C#N)C1c1c(Cl)cccc1Cl,"inconclusive: 39.8 µM [inhibitor, partial curve]"
10,Cc1cc(C(=O)NCCCN2CC(C)CC(C)C2)n(-c2ccccc2)n1 (stereo unspecified),"inconclusive: 44.7 µM [inhibitor, partial curve, poor fit]"
11,Cc1ccc(C2=NCCn3c2c2ccc(C(F)(F)F)cc2[n+]3[O-])cc1,"inconclusive: 44.7 µM [inhibitor, partial curve, poor fit]"
12,C[C@@H]1CN([C@H](C)CO)C(=O)CCCn2cc(nn2)CO[C@H]1CN(C)C(=O)Nc1cccc(C(F)(F)F)c1,"inconclusive: 0.282 µM [inhibitor, full curve, poor fit]"
13,CCOC(=O)C1=C(c2ccccc2)N=c2s/c(=C\c3ccc(O)cc3)c(=O)n2C1c1cccs1 (stereo unspecified),active: 28.2 µM
14,Cc1ccc(-c2cc(C(=O)OCC(=O)N(C)c3c(N)n(Cc4ccccc4)c(=O)[nH]c3=O)c3ccccc3n2)o1,inactive
15,Cc1cc(=O)[nH]c2cc(O)ccc12,"inconclusive: 0.251 µM [inhibitor, full curve, poor fit]"
16,CC(=O)c1cccc(NS(=O)(=O)c2cc(-c3onc(C)c3C)ccc2C)c1,inactive
17,Cc1ccc(CN(Cc2cc3cc4c(cc3[nH]c2=O)OCCO4)Cc2nnnn2Cc2ccco2)cc1,"inconclusive: 50.1 µM [inhibitor, partial curve, poor fit]"
18,CCc1cccc(CC)c1NC(=O)C1CCC(CNS(=O)(=O)c2cccc3nsnc23)CC1 (stereo unspecified),"inconclusive: 1.26 µM [inhibitor, full curve, poor fit]"
19,CC(C)(C)OC(=O)C(Cl)(C(=O)OC(C)(C)C)c1ccc2nnnn2n1,"inconclusive: 17.8 µM [inhibitor, partial curve]"
20,N#C/C(=C\c1ccc(Sc2ccc(Cl)cc2)o1)c1nc2ccccc2[nH]1,"inconclusive: 39.8 µM [inhibitor, partial curve, poor fit]"

# Structural class, those above containing an aryl thioether with sulfur outside any ring.
row,Compound,Potency
7,CN(CC(=O)Nc1c(Cl)cccc1Cl)C(=O)c1ccccc1SCC(=O)N1CCCC1,inactive
15,CCC(Sc1nc2ccncc2[nH]1)C(=O)Nc1cc(Cl)ccc1C (stereo unspecified),"inconclusive: 4.47 µM [inhibitor, single point]"
20,COc1cc(N)c2ncccc2c1SC,"inconclusive: 50.1 µM [inhibitor, partial curve, poor fit]"
5,COc1ccccc1NC(=O)CSc1nnc(NC(=O)NC2CCCCC2)s1,inactive
20,N#C/C(=C\c1ccc(Sc2ccc(Cl)cc2)o1)c1nc2ccccc2[nH]1,"inconclusive: 39.8 µM [inhibitor, partial curve, poor fit]"
